In the experiment the target is T1, 3XFLAG-UPF1 (pcDNA3-3XFLAG-UPF1) (UniProt Q92900).
T1 sequence: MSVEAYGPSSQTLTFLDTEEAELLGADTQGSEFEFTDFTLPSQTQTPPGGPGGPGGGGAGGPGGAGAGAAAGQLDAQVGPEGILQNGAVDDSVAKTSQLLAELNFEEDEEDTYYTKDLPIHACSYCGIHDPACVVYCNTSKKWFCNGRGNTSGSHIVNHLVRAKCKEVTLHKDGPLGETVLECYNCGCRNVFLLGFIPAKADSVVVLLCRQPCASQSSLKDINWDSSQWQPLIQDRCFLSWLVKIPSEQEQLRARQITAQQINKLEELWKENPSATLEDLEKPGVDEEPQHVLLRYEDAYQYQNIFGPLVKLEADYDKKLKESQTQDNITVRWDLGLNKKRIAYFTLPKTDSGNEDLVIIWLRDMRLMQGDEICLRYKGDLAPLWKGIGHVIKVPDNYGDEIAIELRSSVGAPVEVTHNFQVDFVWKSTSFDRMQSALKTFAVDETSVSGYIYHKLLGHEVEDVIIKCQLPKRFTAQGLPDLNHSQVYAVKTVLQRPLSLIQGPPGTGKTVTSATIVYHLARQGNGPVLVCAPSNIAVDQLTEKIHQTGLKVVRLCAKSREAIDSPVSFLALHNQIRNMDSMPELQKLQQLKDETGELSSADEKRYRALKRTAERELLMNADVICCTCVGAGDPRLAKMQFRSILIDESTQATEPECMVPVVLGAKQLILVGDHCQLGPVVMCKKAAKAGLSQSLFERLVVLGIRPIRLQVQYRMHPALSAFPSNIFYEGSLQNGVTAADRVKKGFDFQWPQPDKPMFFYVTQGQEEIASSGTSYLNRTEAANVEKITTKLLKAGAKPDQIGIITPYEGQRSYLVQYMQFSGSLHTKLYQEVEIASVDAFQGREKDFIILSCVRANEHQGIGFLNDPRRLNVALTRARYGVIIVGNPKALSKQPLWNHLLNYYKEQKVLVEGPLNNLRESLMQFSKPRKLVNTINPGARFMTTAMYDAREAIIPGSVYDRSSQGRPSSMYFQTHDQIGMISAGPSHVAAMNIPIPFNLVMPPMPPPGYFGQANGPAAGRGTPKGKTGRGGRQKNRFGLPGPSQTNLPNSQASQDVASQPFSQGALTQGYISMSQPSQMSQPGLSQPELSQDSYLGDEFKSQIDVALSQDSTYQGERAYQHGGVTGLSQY
The experiment is described as follows: co-IP; HEK293T cells depleted of DHX34 by siRNA, transfected with 3XFLAG-UPF1 and siRNA-resistant wild-type or variant T7-DHX34; immunoprecipitation on Anti-FLAG M2 Affinity Gel, blots with anti-UPF2 and anti-UPF3B.

The chains behind the UniProt entries cited, without tags or fusion partners.
UniProt Q9HAU5: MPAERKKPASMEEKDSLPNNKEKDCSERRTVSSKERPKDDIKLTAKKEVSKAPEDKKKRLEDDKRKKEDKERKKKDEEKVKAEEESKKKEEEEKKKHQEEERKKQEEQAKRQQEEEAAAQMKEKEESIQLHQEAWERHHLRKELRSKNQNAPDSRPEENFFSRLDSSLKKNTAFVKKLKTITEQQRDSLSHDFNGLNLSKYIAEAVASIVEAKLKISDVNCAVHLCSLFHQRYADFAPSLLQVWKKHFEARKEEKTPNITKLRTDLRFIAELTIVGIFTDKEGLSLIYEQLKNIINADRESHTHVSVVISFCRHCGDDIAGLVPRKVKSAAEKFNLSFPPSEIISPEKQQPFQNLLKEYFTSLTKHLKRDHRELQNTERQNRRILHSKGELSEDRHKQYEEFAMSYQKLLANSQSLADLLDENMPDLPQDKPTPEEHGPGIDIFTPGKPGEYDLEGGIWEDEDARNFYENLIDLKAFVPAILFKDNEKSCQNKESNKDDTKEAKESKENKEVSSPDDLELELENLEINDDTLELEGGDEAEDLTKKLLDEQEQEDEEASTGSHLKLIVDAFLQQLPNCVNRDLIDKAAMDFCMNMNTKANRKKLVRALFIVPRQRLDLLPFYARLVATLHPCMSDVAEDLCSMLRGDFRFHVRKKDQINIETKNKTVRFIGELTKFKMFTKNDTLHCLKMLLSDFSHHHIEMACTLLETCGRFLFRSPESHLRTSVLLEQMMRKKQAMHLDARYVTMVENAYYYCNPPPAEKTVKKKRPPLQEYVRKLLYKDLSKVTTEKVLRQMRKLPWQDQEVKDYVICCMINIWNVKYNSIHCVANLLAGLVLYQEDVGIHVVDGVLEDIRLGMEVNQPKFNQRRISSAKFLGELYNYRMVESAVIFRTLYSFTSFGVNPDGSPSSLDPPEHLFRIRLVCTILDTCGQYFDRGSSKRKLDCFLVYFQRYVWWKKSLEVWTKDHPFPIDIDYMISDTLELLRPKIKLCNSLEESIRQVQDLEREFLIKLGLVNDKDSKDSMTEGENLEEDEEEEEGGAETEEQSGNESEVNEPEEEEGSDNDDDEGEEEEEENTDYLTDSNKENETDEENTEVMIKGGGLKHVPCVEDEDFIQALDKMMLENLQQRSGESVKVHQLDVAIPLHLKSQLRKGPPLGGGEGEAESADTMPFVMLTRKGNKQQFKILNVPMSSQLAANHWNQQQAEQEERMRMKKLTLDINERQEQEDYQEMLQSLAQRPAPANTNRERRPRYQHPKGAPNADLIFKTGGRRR

No constants are given. Whether binding was seen depends on the method and setting. In cells and extracts the contact can be indirect. Some entries that bind do so weakly or less than the wild type. Where a sequence is shown, tags or fusion partners need not be part of it.

As for UPF2 (from UniProt Q9HAU5 1-1272), the binding result is recorded as “binds”.

B1: UPF3B (protein, UniProt Q9BZI7 1-483)
chain: MKEEKEHRPKEKRVTLLTPAGATGSGGGTSGDSSKGEDKQDRNKEKKEALSKVVIRRLPPTLTKEQLQEHLQPMPEHDYFEFFSNDTSLYPHMYARAYINFKNQEDIILFRDRFDGYVFLDNKGQEYPAIVEFAPFQKAAKKKTKKRDTKVGTIDDDPEYRKFLESYATDNEKMTSTPETLLEEIEAKNRELIAKKTTPLLSFLKNKQRMREEKREERRRREIERKRQREEERRKWKEEEKRKRKDIEKLKKIDRIPERDKLKDEPKIKVHRFLLQAVNQKNLLKKPEKGDEKELDKREKAKKLDKENLSDERASGQSCTLPKRSDSELKDEKPKRPEDESGRDYREREREYERDQERILRERERLKRQEEERRRQKERYEKEKTFKRKEEEMKKEKDTLRDKGKKAESTESIGSSEKTEKKEEVVKRDRIRNKDRPAMQLYQPGARSRNRLCPPDDSTKSGDSAAERKQESGISHRKEGGEE
Consider B1, for which the binding entry was “binds”.

The values above are taken from paper PMC7042299.
